{"sequences": {"note": "Sequences of proteins named here, by UniProt entry; tags and fusion partners are left off.", "UniProt A0A089Q2Q3": "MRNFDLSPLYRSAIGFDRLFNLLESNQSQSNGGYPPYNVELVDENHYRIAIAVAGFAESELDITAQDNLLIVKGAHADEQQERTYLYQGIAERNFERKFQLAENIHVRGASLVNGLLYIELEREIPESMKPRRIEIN"}, "source": "paper PMC6834283", "about": "“Duplicate divergence of two bacterial small heat shock proteins reduces the demand for Hsp70 in refolding of substrates” (PLoS Genetics, 2019)", "molecules": {"B1": {"name": "IbpA from Erwinia amylovora (protein, UniProt A0ABX7MII2 1-139)", "chain": "MRNFDLAPLYRSSIGFDRLINLLETSQNQGNNGGYPPYNVELVAENHYRITIAVAGFAESELEITSHDNLLSVRGSHPDEQQERTWLYQGIAERNFERKFQLAEHVHVRDARLENGLLYIDLERVVPEANQPRRIEIVK"}}, "key": {"[1]": {"target": "firefly luciferase, thermally denatured (firefly) [luciferase: P08659]", "experiment": "co-sedimentation; both purified"}, "[2]": {"target": "firefly luciferase, thermally denatured (firefly) [luciferase: P08659]", "experiment": "co-sedimentation; both purified", "remark": "listed apart in the source"}, "[3]": {"target": "C-His-tagged luciferase, aggregated on the BLI sensor (firefly) [luciferase: P08659]", "experiment": "BLI; aggregated C-His-tagged luciferase immobilised on Ni-NTA sensors (BLItz); 5 μM sHsps (1.66 μM IbpAEc with 3.34 μM IbpBEc for IbpABEc) heat-activated at 44°C for 5 min; room temperature, buffer D (50 mM Tris-HCl pH 7.5, 150 mM KCl, 20 mM Mg acetate, 2 mM DTT); 10 min binding, 1 h dissociation in buffer; both purified"}}, "note": "Like-named read-outs stand apart in the source and are kept apart here. Results are given in words; binding and its absence hold for the method and conditions named. Some entries that bind do so weakly or less than the wild type.", "data": [{"molecule": "IbpA from Cedecea neteri (from UniProt A0A089Q2Q3 1-137)", "values": [{"measurement": "binding", "setting": "[1]", "value": "binds"}]}, {"molecule": "B1", "values": [{"measurement": "binding", "setting": "[2]", "value": "binds"}, {"measurement": "binding", "setting": "[3]", "value": "binds"}]}]}
